The record followed here is article PMC5954120.

The chains behind the UniProt entries cited, without tags or fusion partners. Residues count along the entry.
UniProt P02769, residues 25-607: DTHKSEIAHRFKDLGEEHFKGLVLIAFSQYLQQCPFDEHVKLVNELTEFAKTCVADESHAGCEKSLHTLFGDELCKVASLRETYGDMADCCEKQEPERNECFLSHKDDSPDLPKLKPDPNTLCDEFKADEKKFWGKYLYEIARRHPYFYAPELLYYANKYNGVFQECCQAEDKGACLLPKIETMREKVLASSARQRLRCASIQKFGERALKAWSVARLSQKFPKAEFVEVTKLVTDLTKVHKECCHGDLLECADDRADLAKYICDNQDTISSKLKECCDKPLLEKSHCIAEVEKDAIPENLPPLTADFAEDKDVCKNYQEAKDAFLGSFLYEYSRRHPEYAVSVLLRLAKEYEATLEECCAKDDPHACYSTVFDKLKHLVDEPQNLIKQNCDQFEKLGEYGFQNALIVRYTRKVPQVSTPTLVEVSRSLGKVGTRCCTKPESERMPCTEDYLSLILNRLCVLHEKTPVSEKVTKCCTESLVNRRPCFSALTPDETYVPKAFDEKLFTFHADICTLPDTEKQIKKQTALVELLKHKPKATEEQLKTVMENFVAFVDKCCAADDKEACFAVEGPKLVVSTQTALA

Results are given in words; binding and its absence hold for the method and conditions named. For some assays here: Binding seen in cells or lysates may run through a third protein. Some results given as binding are weak or reduced against the parent protein; the word gives no strength. For some assays here: Tags and fused reporters may be left off the sequences shown.

In assay [1] the target is GST-Pmp23 (S. pneumoniae) (UniProt Q8DPY9). As to the kind of experiment: MST; 100 nM GST-Pmp23 labeled with NT-647, titrated with PBP2x (7 nM to 235 μM) or BSA (5 nM to 360 μM); 25 °C; 50 mM Tris-HCl, 150 mM NaCl, 10 mM MgCl2, 0.05% Tween-20; triplicates; both purified.
For assay [2], the target named is T1, 3xFLAG-Pmp23 (S. pneumoniae) (UniProt Q8DPY9).
T1 sequence: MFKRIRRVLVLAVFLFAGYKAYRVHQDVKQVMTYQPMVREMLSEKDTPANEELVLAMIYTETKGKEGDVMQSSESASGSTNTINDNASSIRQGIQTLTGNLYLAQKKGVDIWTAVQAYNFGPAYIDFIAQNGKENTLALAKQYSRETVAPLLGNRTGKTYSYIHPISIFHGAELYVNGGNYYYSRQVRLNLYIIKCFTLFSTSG
Description: co-IP; anti-FLAG agarose resin on Triton X-100 (2%) solubilized membrane proteins of S. pneumoniae expressing 3xflag-pmp23; 5 h at 4 °C; elution with FLAG peptide; Western blot with anti-PBP2x serum and anti-FLAG antibodies. A general note: In western blotting, separated proteins are transferred to a membrane and probed.

Regarding “BSA (bovine serum albumine) (from UniProt P02769 25-607)”, the binding entry in assay [1] is on record as “no binding (tested: 360 μM)”.

B1: PBP2x (enzyme, UniProt P59676 1-750)
chain: MKWTKRVIRYATKNRKSPAENRRRVGKSLSLLSVFVFAIFLVNFAVIIGTGTRFGTDLAKEAKKVHQTTRTVPAKRGTIYDRNGVPIAEDATSYNVYAVIDENYKSATGKILYVEKTQFNKVAEVFHKYLDMEESYVREQLSQPNLKQVSFGAKGNGITYANMMSIKKELEAAEVKGIDFTTSPNRSYPNGQFASSFIGLAQLHENEDGSKSLLGTSGMESSLNSILAGTDGIITYEKDRLGNIVPGTEQVSQRTMDGKDVYTTISSPLQSFMETQMDAFQEKVKGKYMTATLVSAKTGEILATTQRPTFDADTKEGITEDFVWRDILYQSNYEPGSTMKVMMLAAAIDNNTFPGGEVFNSSELKIADATIRDWDVNEGLTGGRMMTFSQGFAHSSNVGMTLLEQKMGDATWLDYLNRFKFGVPTRFGLTDEYAGQLPADNIVNIAQSSFGQGISVTQTQMIRAFTAIANDGVMLEPKFISAIYDPNDQTARKSQKEIVGNPVSKDAASLTRTNMVLVGTDPVYGTMYNHSTGKPTVTVPGQNVALKSGTAQIADEKNGGYLVGLTDYIFSAVSMSPAENPDFILYVTVQQPEHYSGIQLGEFANPILERASAMKDSLNLQTTAKALEQVSQQSPYPMPSVKDISPGDLAEELRRNLVQPIVVGTGTKIKNSSAEEGKNLAPNQQVLILSDKAEEVPDMYGWTKETAETLAKWLNIELEFQGSGSTVQKQDVRANTAIKDIKKITLTLGD
B1: the binding result in assay [2] was “binds”.
